Data from patent publication US9248162B2, “Factor H for treatment of rheumatoid arthritis” (Baxter International Inc., priority 2013, dated 2016).
For at least one compound, name, drawing or mass did not settle the structure.

System: kidney allografts in pre-sensitized recipients
Test: Kidney allograft survival in pre-sensitized recipients, RAPA / FK506 / CFH (Example 2)
Type: in vivo, C57BL/6 (B6) mice
Conditions: result in words
Source text: Male C3H (H-2k) and C57BL/6 (B6, H-2b) mice (25-30 g) were used to determine the efficacy of Rapamycin (RAPA) in combination with Factor H (FH) during transplant rejection. C3H mice served as skin graft and kidney donors for pre-sensitization and kidney transplantation. Male C57BL/c (B6) mice were used as recipients. The B6 recipients were pre-sensitized by transplantation of the donor skin grafts, and were subsequently transplanted with kidney allografts between 15 and 20 days after the skin transplantation. […]
Mice were monitored daily for signs of rejection and were euthanized at the end point of the experiment, which was defined as when transplants developed functional deterioration due to severe rejection or on POD60 and POD100. Renal graft function was monitored by plasma creatinine (Cr) blood urea nitrogen (BUN) and hematocrit (Hct) levels by an I-Stat potable analyzer (Abaxis). Circulating donor specific antibodies (DSAs) were determined prior to kidney transplantation and at the endpoint of study by flow cytometry.

CO[C@H]1C[C@@H]2CC[C@@H](C)[C@@](O)(O2)C(=O)C(=O)N2CCCC[C@H]2C(=O)O[C@H]([C@H](C)C[C@@H]2CC[C@@H](O)[C@H](OC)C2)CC(=O)[C@H](C)/C=C(\C)[C@@H](O)[C@@H](OC)C(=O)[C@H](C)C[C@H](C)/C=C/C=C/C=C/1C [RAPA, Rapamycin]
kidney allograft rejection / survival: demonstrated a protective effect
